For the test, the system named is CD2F1 mice, L1210 leukemia ip, survival T/C. As to the kind of experiment: NCI In Vivo Anticancer Drug Screen. Data for tumor model L1210 Leukemia (intraperitoneal) in CD2F1 (CDF1) mice. Particulars: higher T/C = longer survival. Put shortly:
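Read-out first: treated-group measurement over vehicle-control measurement, expressed as a ratio. Animals bore a transplanted tumor line and were dosed with compound or vehicle.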

Where [1] appears, read: T/C endpoint: mean survival time, dose: 400.0 mg/kg/injection, schedule: Q04DX003 (ip), vehicle: saline with Tween-80.
The mark [2] stands for this setting: T/C endpoint: mean survival time, dose: 50.0 mg/kg/injection, schedule: Q01DX009 (ip), vehicle: saline with Tween-80.
Where [3] appears, read: T/C endpoint: mean survival time, dose: 100.0 mg/kg/injection, schedule: Q01DX009 (ip), vehicle: saline with Tween-80.
Where [4] appears, read: T/C endpoint: mean survival time, dose: 200.0 mg/kg/injection, schedule: Q01DX009 (ip), vehicle: saline with Tween-80.
Setting [5] is: T/C endpoint: mean survival time, dose: 400.0 mg/kg/injection, schedule: Q01DX005 (ip), vehicle: water.
Setting [6] is: T/C endpoint: mean survival time, dose: 400.0 mg/kg/injection, schedule: Q01DX009 (ip), vehicle: saline with Tween-80.
Setting [7] is: T/C endpoint: mean survival time, dose: 200.0 mg/kg/injection, schedule: Q04DX003 (ip), vehicle: saline with Tween-80.
[8] abbreviates: T/C endpoint: mean survival time, dose: 400.0 mg/kg/injection, schedule: Q01DX001 (ip), vehicle: saline.

The record followed here is PubChem BioAssay AID256 (DTP/NCI, 2004).

The list shows only some results of the screen, not a fair sample: it is rich in T/C values a quarter to a half above the control, in often repeated tests (any T/C) and in doses without a T/C. Further doses and runs are listed elsewhere. T/C is the treated group as % of the vehicle group. Some doses have a count of surviving animals in place of a T/C: the source holds a T/C of zero for them, seemingly a mark for toxic or unscored doses. Some doses without a T/C left all or most animals alive at the check, yet need not have been tolerated: survival well below the control is almost never listed, so the zero probably covers shortened survival too. Survivors were counted at the toxicity check, usually on the fifth day, unless a day is given; later deaths do not show. Schedules are NCI's codes, read here as Q, the interval in days (D) or hours (H), X, the number of doses. Some schedules carry Z or #; the key to these is not given. Where survival is the endpoint, this PubChem deposit counts one and a half times the control or more as active, and values a quarter to a half above the control carry no call in these data; other NCI protocols may use other cut-offs. Some entries were tested several times; their values stand side by side, smallest first. Some T/C values carry the count of animals alive at the toxicity check (mostly the fifth day); where none is given, no animal had died by that day.

As for `N#CC(=C1SCS1)[N+](=O)[O-]`, the survivor count is, setting by setting: (T/C endpoint: mean survival time, dose: 6.0 mg/kg/injection, schedule: Q01DX009 (ip), vehicle: saline with Tween-80) 6 of 6; (T/C endpoint: mean survival time, dose: 12.0 mg/kg/injection, schedule: Q01DX009 (ip), vehicle: saline with Tween-80) 2 of 6.

As for `COc1ccc(CCl)cc1CCl`, the survivor count under setting [1] was 0 of 3.

On to `CCCCC(/C=N/N=C/C(CC)CCCC)CC` (stereo unspecified), for which the survivor count is on record as 3 of 3 (T/C endpoint: mean survival time, dose: 100.0 mg/kg/injection, schedule: Q04DX002 (ip), vehicle: saline with Tween-80) and 3 of 3 (T/C endpoint: mean survival time, dose: 400.0 mg/kg/injection, schedule: Q04DX002 (ip), vehicle: saline with Tween-80).

In the case of `CCOC(=O)C[n+]1ccccc1/C=C/c1ccc(O)cc1`, the survivor count is listed as 0 of 6 (T/C endpoint: mean survival time, dose: 75.0 mg/kg/injection, schedule: Q01DX001 (ip), vehicle: other); 0 of 6 (T/C endpoint: mean survival time, dose: 150.0 mg/kg/injection, schedule: Q01DX001 (ip), vehicle: other); 0 of 6 (T/C endpoint: mean survival time, dose: 300.0 mg/kg/injection, schedule: Q01DX001 (ip), vehicle: other).

As for `Cc1cc(Cl)ccc1NC(=O)N1CCCC(C)C1` (stereo unspecified), the survivor count is 3 of 3 under setting [2], 3 of 3 under setting [3] and 3 of 3 under setting [4].

On to `Cc1cc2nc3ccc(=[N+](C)C)cc-3sc2cc1N`, for which the survivor count (T/C endpoint: mean survival time, dose: 100.0 mg/kg/injection, schedule: Q04DX003 (ip), vehicle: saline) is reported as 1 of 6.

Take `Cc1ccc(NC(=O)Nc2ccccc2C(N)=O)cc1C`: the survivor count under setting [2] is 2 of 3.

Consider `CC1CN(Cc2ccccc2O)CC(C)N1` (stereo unspecified), for which the survivor count is 2 of 6 (T/C endpoint: mean survival time, dose: 200.0 mg/kg/injection, schedule: Q01DX005 (ip), vehicle: water) and 1 of 6 under setting [5].

With `CC(C)CC(NC(=O)C(Cc1c[nH]c2ccccc12)NC(=O)OC(C)(C)C)C(=O)NN` (stereo unspecified), the T/C (T/C endpoint: mean survival time, dose: 200.0 mg/kg/injection, schedule: Q01DX009 (ip), vehicle: saline) is 142 % of control [5 of 6 alive].

Regarding `CC1=CC(=O)C(C(=O)CC(O)(C(F)(F)F)C(F)(F)F)C(=O)O1` (stereo unspecified), the survivor count under setting [3] is reported as 4 of 6, the survivor count under setting [4] is reported as 4 of 6 and the survivor count under setting [6] is given as 3 of 6.

Turning to `CCc1ccc(C(=O)O)cc1S(=O)(=O)Cl`, the survivor count by setting is: under setting [7], 0 of 6; under setting [1], 2 of 6.

Take `CCN(CC)CCSC(=O)C(O)(c1ccccc1)c1cccc(C)c1` (stereo unspecified): the survivor count is reported as 1 of 6 (T/C endpoint: mean survival time, dose: 150.0 mg/kg/injection, schedule: Q01DX001 (ip), vehicle: saline) and 0 of 6 (T/C endpoint: mean survival time, dose: 300.0 mg/kg/injection, schedule: Q01DX001 (ip), vehicle: saline).

For `COc1ccc(C(O)(c2ccccc2)C(OC(C)=O)c2ccccc2)cc1` (stereo unspecified), the survivor count (T/C endpoint: mean survival time, dose: 100.0 mg/kg/injection, schedule: Q04DX003 (ip), vehicle: saline with Tween-80) was 6 of 6; the survivor count under setting [7] was 6 of 6; the survivor count under setting [1] is 6 of 6.

Take `CC1(C)C=Cc2ccccc21`: under setting [4], the survivor count was 2 of 6.

Consider `NC(Cc1ccccc1)C(=O)OCN1C(=O)C2C3C=CC(C2C1=O)C1C2C(=O)N(COC(=O)C(N)Cc4ccccc4)C(=O)C2C31` (stereo unspecified), for which the T/C (T/C endpoint: median survival time, dose: 60.0 mg/kg/injection, schedule: Q01DX009 (ip), vehicle: water) is 142 % of control. Further, the survivor count (T/C endpoint: median survival time, dose: 166.7 mg/kg/injection, schedule: Q01DX009 (ip), vehicle: water) is on record as 0 of 6.

Consider `CC1CCCC(C)N1c1ccc(NC(=O)c2ccc(C(=O)Nc3ccc(N4C(C)CCCC4C)cc3)cc2)cc1` (stereo unspecified), for which the survivor count is 4 of 4 (T/C endpoint: mean survival time, dose: 200.0 mg/kg/injection, schedule: Q01DX001 (ip), vehicle: saline) and 4 of 4 under setting [8].

As to `Cc1nc(N)nc(N)c1CCCOc1ccc(NC(=O)c2cccc(S(=O)(=O)F)c2)cc1`, for the setting “T/C endpoint: mean survival time, dose: 200.0 mg/kg/injection, schedule: Q#A X018 (ip), vehicle: saline”, the survivor count is 3 of 6.

In the case of `COc1cccc2c1C(=O)c1c(O)c3c(c(O)c1C2=O)C[C@@](O)(C(=O)COC(=O)c1ccccc1)C[C@@H]3OC1CC(N)C(O)C(C)O1` (stereo partly specified), the T/C is, setting by setting: (T/C endpoint: mean survival time, dose: 0.5 mg/kg/injection, schedule: Q04DX003 (ip), vehicle: saline with Tween-80) 137 % of control; (T/C endpoint: mean survival time, dose: 1.0 mg/kg/injection, schedule: Q01DX009 (ip), vehicle: saline sonified) 139 % of control; (T/C endpoint: mean survival time, dose: 1.0 mg/kg/injection, schedule: Q04DX003 (ip), vehicle: saline with Tween-80) 145 % of control; (T/C endpoint: mean survival time, dose: 1.4 mg/kg/injection, schedule: Q04DX003 (ip), vehicle: saline with Tween-80) 126 % of control; (T/C endpoint: mean survival time, dose: 2.0 mg/kg/injection, schedule: Q01DX009 (ip), vehicle: saline sonified) 139 % of control; (T/C endpoint: mean survival time, dose: 2.0 mg/kg/injection, schedule: Q04DX003 (ip), vehicle: Klucel (hydroxypropylcellulose) (HPC)) 131 % of control. Also, the T/C was 138 and 143 % of control (T/C endpoint: mean survival time, dose: 2.0 mg/kg/injection, schedule: Q04DX003 (ip), vehicle: saline with Tween-80); 139 % of control (T/C endpoint: mean survival time, dose: 3.0 mg/kg/injection, schedule: Q04DX003 (ip), vehicle: Klucel (hydroxypropylcellulose) (HPC)); 140 % of control (T/C endpoint: mean survival time, dose: 3.0 mg/kg/injection, schedule: Q04DX003 (ip), vehicle: saline with Tween-80).

As to `O=[N+]([O-])c1ccc(O)c(Cl)c1`, the survivor count is listed as 0 of 3 under setting [3] and 0 of 3 under setting [4].

In the case of `CSc1nc2c(c(=O)[nH]1)c1c(N)ncnc1n2C1OC(CO)C(O)C1O` (stereo unspecified), the survivor count under setting [5] was 2 of 4.

Regarding `CN(C)C/C(=C\c1ccccc1)C(=O)c1ccccc1`, the survivor count (T/C endpoint: mean survival time, dose: 100.0 mg/kg/injection, schedule: Q04DX003 (ip), vehicle: other) is recorded as 5 of 6.

In the case of `Cc1nc(C)c(Cc2ccccc2O)c(=O)[nH]1`, the survivor count is recorded as 3 of 6 (T/C endpoint: mean survival time, dose: 100.0 mg/kg/injection, schedule: Q01DX001 (ip), vehicle: saline) and 2 of 6 under setting [8].

As for `Cc1[nH]c2ccccc2c1C(c1cc(Cl)cc(Cl)c1O)c1c(C)[nH]c2ccccc12`, the survivor count by setting is: under setting [3], 3 of 3; under setting [6], 3 of 3.

On to `OCCC1CC1=C1CC1` (stereo unspecified), for which the survivor count (T/C endpoint: mean survival time, dose: 400.0 mg/kg/injection, schedule: Q04DX003 (ip), vehicle: Klucel (hydroxypropylcellulose) (HPC)) was 0 of 6.

Regarding `O=C(O)C1C2c3cccc4cccc(c34)C12` (stereo unspecified), the survivor count under setting [1] is 6 of 6.
